## Cleaved PARP in drug-treated melanoma cells

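Human melanoma cells were exposed to two drugs together for 72 h in 1,536-well plates and read by automated microscopy after fixing and staining. The read-out is the fraction of cleaved-PARP-positive nuclei, in % of that fraction in the DMSO control; 200 means twice the control level of this apoptosis marker. Concentrations were fixed for each drug; these are the higher of two levels. The file gives one value for each pair and line, without errors, so small differences may be noise. Basal and induced levels differ widely between cell lines.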 Only some of the drugs and lines screened are listed, without regard to their results. A dash means that no value is listed here.

Every entry is a combination with JZL184 at 5000 nM: O=C(Oc1ccc([N+](=O)[O-])cc1)N1CCC(C(O)(c2ccc3c(c2)OCO3)c2ccc3c(c2)OCO3)CC1

Second drug	C32	SK-MEL-28	WM115	SK-MEL-30	501mel	IST-MEL1
CO[C@@H]1[C@H](N(C)C(=O)c2ccccc2)C[C@H]2O[C@]1(C)n1c3ccccc3c3c4c(c5c6ccccc6n2c5c31)C(=O)NC4 at 400 nM	151	167	504	162	55.0	45.1
NC(=O)c1ccc(N(C(N)=O)c2c(F)cccc2F)nc1-c1ccc(F)cc1F at 2000 nM	189	83.0	203	167	180	216
O=S(=O)(c1ccccc1)N(CC(F)(F)F)c1ccc(C(O)(C(F)(F)F)C(F)(F)F)cc1 at 7000 nM	93.2	125	241	57.6	84.9	102
Nc1ccn([C@@H]2O[C@H](CO)[C@@H](O)C2(F)F)c(=O)n1 at 2 nM	87.7	61.3	122	128	168	67.5
N#Cc1c(O)c2c(-c3ccc(-c4ccccc4O)cc3)csc2[nH]c1=O at 10000 nM	99.5	35.8	110	146	28.6	55.2
O=c1[nH]nc(Sc2ncc([N+](=O)[O-])s2)n1-c1ccc2c(c1)OCCO2 at 1000 nM	91.7	71.4	57.0	157	51.9	99.0
COc1ccc2c(c1)CCC1C2CCC2(C)C(NCCCCCCN3C(=O)C=CC3=O)CCC12 (configuration not stated) at 2000 nM	113	66.7	101	48.3	194	61.2
CCCCCCCCCCCCCCCCCCOP(=O)([O-])OC1CC[N+](C)(C)CC1 at 2000 nM	74.2	65.3	51.1	218	147	104
Cn1nnc2c(C(N)=O)ncn2c1=O at 10000 nM	92.4	116	56.6	278	49.3	117
CCCCCCCCc1ccc(CCC(N)(CO)CO)cc1 at 10000 nM	3470	8810	1080	919	11100	426
Cn1cncc1[C@@](N)(c1ccc(Cl)cc1)c1ccc2c(c1)c(-c1cccc(Cl)c1)cc(=O)n2C at 50 nM	85.8	44.2	147	150	71.6	182
CCN(CC)CCCCNc1ncc2cc(-c3cc(OC)cc(OC)c3)c(NC(=O)NC(C)(C)C)nc2n1 at 500 nM	82.0	144	184	100	45.2	27.5
CCN(CC)CCNC(=O)c1c(C)[nH]c(/C=C2\C(=O)Nc3ccc(F)cc32)c1C at 2000 nM	80.8	105	553	233	449	138
Nc1cccc2c1CN(C1CCC(=O)NC1=O)C2=O (configuration not stated) at 5000 nM	94.6	59.6	102	134	133	78.9
Cc1cc(N2CCOCC2)cc2[nH]c(-c3c(NC[C@@H](O)c4cccc(Cl)c4)cc[nH]c3=O)nc12 at 1000 nM	114	140	91.8	104	176	130
NC(=O)Nc1cc(-c2cccc(F)c2)sc1C(=O)N[C@H]1CCCNC1 at 100 nM	113	310	127	348	177	77.8
COc1ccc(C2=N[C@@H](c3ccc(Cl)cc3)[C@@H](c3ccc(Cl)cc3)N2C(=O)N2CCNC(=O)C2)c(OC(C)C)c1 at 500 nM	102	45.1	64.2	149	314	81.8
O=C(Nc1cc(C(F)(F)F)cc(C(F)(F)F)c1)c1cc(Cl)ccc1O at 80 nM	82.3	92.4	165	120	87.1	62.8
C[C@@H]1CCN(C(=O)CC#N)C[C@@H]1N(C)c1ncnc2[nH]ccc12 at 5000 nM	86.5	25.4	43.7	133	-	165

Data from the primary screen of doi:10.1371/journal.pone.0140310, rounded.